# Reference: paper PMC3828397, “Characterization of PfTrxR inhibitors using antimalarial assays and in silico techniques” (Chemistry Central Journal, 2013)
# The index is printed as in the source, without its formula.
# How the values were obtained:
# [1] = tested on: P. falciparum chloroquine resistant (W2, IndoChina) strain; experiment: In vitro antimalarial assay (SYBR green), W2 strain; format: cell-based, Plasmodium falciparum; conditions: Selectivity index
# [2] = tested on: P. falciparum chloroquine sensitive (D6, Sierra Leone) strain; experiment: In vitro antimalarial assay (SYBR green), D6 strain; format: cell-based, Plasmodium falciparum; conditions: Selectivity index
SMILES,SI W2 [1],SI D6 [2]
"O=C1C=CC(=O)c2ccccc21 [1,4-NQ, 1,4-napthoquinone]",2.4,–
"CN(C)CCC(=O)c1ccccc1 [3-DAP, 3-dimethylaminopropiophenone]",>1,>1
